# Reference: the supplement of paper PMC8728848
# Some of the results follow.
# B1: SabA (Helicobacter pylori) (protein)
# chain: MGSSHHHHHHSSGLVPRGSHMENLYFQGEDNGFFVSAGYQIGEAVQMVKNTGELKNLNEKYEQLSQYLNQVASLKQSIQNANNIELVNSSLNYLKSFTNNNYNSTTQSPIFNAVQAVITSVLGFWSLYAGNYFTFFVGKKVGDSGQPASVQGNPPFKTIIENCSGIENCAMDQTTYDKMKKLAEDLQAAQTNSATKGNNLCALSGCAATDSTSNPPNSTVSNALNLAQQLMDLIANTKTAMMWKNIVISGVSNTSGAITSTNYPTQYAVFNNIKAMIPILQQAVTLSQSNHTLSASLQAQATGSQTNPKFAKDIYTFAQNQKQVISYAQDIFNLFNSIPAEQYKYLEKAYLKIPNAGSTPTNPYRQVVNLNQEVQTIKNNVSYYGNRVDAALSVARDVYNLKSNQAEIVTAYNDAKTLSEEISKLPHNQVNTKDIVTLPYDKNAPAAGQSNYQINPEQQSNLNQALAAMSNNPFKKVGMISSQNNNGA
# Columns and labels:
# Experiment in all cases: glycan array binding signal (z-score within array); higher = stronger binding
# Settings in all cases: glycan notation: IUPAC condensed, linker removed
# [1] = biological target: Gal(b1-3)[Fuc(a1-4)]GlcNAc(b1-3)Gal(b1-4)[Fuc(a1-3)]GlcNAc
# Outline: (§1)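 Glycan array binding is given as a within-array Z-score, which can be read as non-binding when negative. The arrays, 3228 of them, came from the Consortium for Functional Glycomics database and were retained only where the protein sequence was available. Z-scores were averaged across arrays of the same protein sequence at different concentrations or buffers and across linkers.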
# [2] = biological target: Gal(b1-3)[Fuc(a1-4)]GlcNAc(b1-6)GalNAc
# Outline: as §1
# [3] = biological target: Gal(b1-3)[GlcNAc(b1-6)]GalNAc
# Outline: as §1
# [4] = biological target: Gal(b1-3)[Neu5Ac(a2-6)]GalNAc
# Outline: as §1
# [5] = biological target: Gal(b1-3)[Neu5Ac(a2-6)]GlcNAc(b1-4)Gal(b1-4)Glc
# Outline: as §1
# [6] = biological target: Gal(b1-3)[Neu5Ac(b2-6)]GalNAc
# Outline: as §1
# Gal(b1-4)Gal = biological target: Gal(b1-4)Gal
# Outline: as §1
# [7] = biological target: Gal(b1-4)GalNAc(a1-3)[Fuc(a1-2)]Gal(b1-4)GlcNAc
# Outline: as §1
# [8] = biological target: Gal(b1-4)GalNAc(b1-3)[Fuc(a1-2)]Gal(b1-4)GlcNAc
# Outline: as §1
# Gal(b1-4)Glc = biological target: Gal(b1-4)Glc
# Outline: as §1
# Gal(b1-4)Glc6S = biological target: Gal(b1-4)Glc6S
# Outline: as §1
# Gal(b1-4)GlcNAc = biological target: Gal(b1-4)GlcNAc
# Outline: as §1
# [9] = biological target: Gal(b1-4)GlcNAc(a1-6)Gal(b1-4)GlcNAc
# Outline: as §1
# Gal(b1-4)GlcNAc(b1-2)Man = biological target: Gal(b1-4)GlcNAc(b1-2)Man
# Outline: as §1
# [10] = biological target: Gal(b1-4)GlcNAc(b1-2)Man(a1-3)Man(b1-4)GlcNAc(b1-4)GlcNAc
# Outline: as §1
# [11] = biological target: Gal(b1-4)GlcNAc(b1-2)Man(a1-3)[Gal(b1-4)GlcNAc(b1-2)Man(a1-6)]Man(b1-4)GlcNAc(b1-4)GlcNAc
# Outline: as §1
# [12] = biological target: Gal(b1-4)GlcNAc(b1-2)Man(a1-3)[Gal(b1-4)GlcNAc(b1-2)Man(a1-6)]Man(b1-4)GlcNAc(b1-4)[Fuc(a1-6)]GlcNAc
# Outline: as §1
# [13] = biological target: Gal(b1-4)GlcNAc(b1-2)Man(a1-3)[Gal(b1-4)GlcNAc(b1-2)Man(a1-6)][Gal(b1-4)GlcNAc(b1-4)]Man(b1-4)GlcNAc(b1-4)[Fuc(a1-6)]GlcNAc
# Outline: as §1
# [14] = biological target: Gal(b1-4)GlcNAc(b1-2)Man(a1-3)[Gal(b1-4)GlcNAc(b1-2)Man(a1-6)][GlcNAc(b1-4)]Man(b1-4)GlcNAc(b1-4)[Fuc(a1-6)]GlcNAc
# Outline: as §1
# [15] = biological target: Gal(b1-4)GlcNAc(b1-2)Man(a1-3)[GlcNAc(b1-2)Man(a1-6)]Man(b1-4)GlcNAc(b1-4)GlcNAc
# Outline: as §1
# [16] = biological target: Gal(b1-4)GlcNAc(b1-2)Man(a1-3)[GlcNAc(b1-4)][Gal(b1-4)GlcNAc(b1-2)Man(a1-6)]Man(b1-4)GlcNAc(b1-4)GlcNAc
# Outline: as §1
# [17] = biological target: Gal(b1-4)GlcNAc(b1-2)Man(a1-3)[Man(a1-6)]Man(b1-4)GlcNAc(b1-4)GlcNAc
# Outline: as §1
# [18] = biological target: Gal(b1-4)GlcNAc(b1-2)Man(a1-6)Man(b1-4)GlcNAc(b1-4)GlcNAc
# Outline: as §1
# [19] = biological target: Gal(b1-4)GlcNAc(b1-2)Man(a1-6)[GlcNAc(b1-2)Man(a1-3)]Man(b1-4)GlcNAc(b1-4)GlcNAc
# Outline: as §1
# [20] = biological target: Gal(b1-4)GlcNAc(b1-2)Man(a1-6)[Man(a1-3)]Man(b1-4)GlcNAc(b1-4)GlcNAc
# Outline: as §1
# [21] = biological target: Gal(b1-4)GlcNAc(b1-2)[Gal(b1-4)GlcNAc(b1-4)]Man(a1-3)[Gal(b1-4)GlcNAc(b1-2)Man(a1-6)]Man(b1-4)GlcNAc(b1-4)GlcNAc
# Outline: as §1
# [22] = biological target: Gal(b1-4)GlcNAc(b1-2)[Gal(b1-4)GlcNAc(b1-4)]Man(a1-3)[Gal(b1-4)GlcNAc(b1-2)[Gal(b1-4)GlcNAc(b1-6)]Man(a1-6)]Man(b1-4)GlcNAc(b1-4)GlcNAc
# Outline: as §1
# [23] = biological target: Gal(b1-4)GlcNAc(b1-2)[Gal(b1-4)GlcNAc(b1-4)]Man(a1-3)[GlcNAc(b1-4)][Gal(b1-4)GlcNAc(b1-2)Man(a1-6)]Man(b1-4)GlcNAc(b1-4)GlcNAc
# Outline: as §1
# [24] = biological target: Gal(b1-4)GlcNAc(b1-2)[Gal(b1-4)GlcNAc(b1-4)]Man(a1-3)[GlcNAc(b1-4)][Gal(b1-4)GlcNAc(b1-2)[Gal(b1-4)GlcNAc(b1-6)]Man(a1-6)]Man(b1-4)GlcNAc(b1-4)GlcNAc
# Outline: as §1
# [25] = biological target: Gal(b1-4)GlcNAc(b1-2)[Gal(b1-4)GlcNAc(b1-6)]Man(a1-6)[Gal(b1-4)GlcNAc(b1-2)Man(a1-3)]Man(b1-4)GlcNAc(b1-4)GlcNAc
# Outline: as §1
# [26] = biological target: Gal(b1-4)GlcNAc(b1-2)[Gal(b1-4)GlcNAc(b1-6)]Man(a1-6)[Gal(b1-4)GlcNAc(b1-2)Man(a1-3)]Man(b1-4)GlcNAc(b1-4)[Fuc(a1-6)]GlcNAc
# Outline: as §1
# [27] = biological target: Gal(b1-4)GlcNAc(b1-2)[Gal(b1-4)GlcNAc(b1-6)]Man(a1-6)[GlcNAc(b1-4)][Gal(b1-4)GlcNAc(b1-2)Man(a1-3)]Man(b1-4)GlcNAc(b1-4)GlcNAc
# Outline: as §1
# [28] = biological target: Gal(b1-4)GlcNAc(b1-2)[Gal(b1-4)GlcNAc(b1-6)]Man(a1-6)[GlcNAc(b1-4)][Gal(b1-4)GlcNAc(b1-2)[Gal(b1-4)GlcNAc(b1-4)]Man(a1-3)]Man(b1-4)GlcNAc(b1-4)[Fuc(a1-6)]GlcNAc
# Outline: as §1
# [29] = biological target: Gal(b1-4)GlcNAc(b1-3)Gal(b1-3)GalNAc
# Outline: as §1
# [30] = biological target: Gal(b1-4)GlcNAc(b1-3)Gal(b1-3)GlcNAc
# Outline: as §1
# [31] = biological target: Gal(b1-4)GlcNAc(b1-3)Gal(b1-4)Glc
# Outline: as §1
# [32] = biological target: Gal(b1-4)GlcNAc(b1-3)Gal(b1-4)GlcNAc
# Outline: as §1
# [33] = biological target: Gal(b1-4)GlcNAc(b1-3)Gal(b1-4)GlcNAc(b1-2)Man(a1-3)[Gal(b1-4)GlcNAc(b1-3)Gal(b1-4)GlcNAc(b1-2)Man(a1-6)]Man(b1-4)GlcNAc(b1-4)GlcNAc
# Outline: as §1
binder,measurement,setting,value
B1,glycan array binding signal (z-score),[1],-0.356
same,glycan array binding signal (z-score),[2],-0.4
same,glycan array binding signal (z-score),[3],0.158
same,glycan array binding signal (z-score),[4],-0.119
same,glycan array binding signal (z-score),[5],0.532
same,glycan array binding signal (z-score),[6],-0.644
same,glycan array binding signal (z-score),Gal(b1-4)Gal,0.204
same,glycan array binding signal (z-score),[7],-0.578
same,glycan array binding signal (z-score),[8],-0.668
same,glycan array binding signal (z-score),Gal(b1-4)Glc,-0.545
same,glycan array binding signal (z-score),Gal(b1-4)Glc6S,0.12
same,glycan array binding signal (z-score),Gal(b1-4)GlcNAc,-0.014
same,glycan array binding signal (z-score),[9],0.158
same,glycan array binding signal (z-score),Gal(b1-4)GlcNAc(b1-2)Man,0.994
same,glycan array binding signal (z-score),[10],1.19
same,glycan array binding signal (z-score),[11],-0.841
same,glycan array binding signal (z-score),[12],0.14
same,glycan array binding signal (z-score),[13],-0.303
same,glycan array binding signal (z-score),[14],-0.006
same,glycan array binding signal (z-score),[15],-0.326
same,glycan array binding signal (z-score),[16],-0.111
same,glycan array binding signal (z-score),[17],0.02
same,glycan array binding signal (z-score),[18],-0.143
same,glycan array binding signal (z-score),[19],-0.599
same,glycan array binding signal (z-score),[20],-0.978
same,glycan array binding signal (z-score),[21],-0.666
same,glycan array binding signal (z-score),[22],-0.781
same,glycan array binding signal (z-score),[23],-0.759
same,glycan array binding signal (z-score),[24],0.061
same,glycan array binding signal (z-score),[25],0.291
same,glycan array binding signal (z-score),[26],0.877
same,glycan array binding signal (z-score),[27],-0.559
same,glycan array binding signal (z-score),[28],-0.441
same,glycan array binding signal (z-score),[29],-0.364
same,glycan array binding signal (z-score),[30],-0.645
same,glycan array binding signal (z-score),[31],1.15
same,glycan array binding signal (z-score),[32],-0.924
same,glycan array binding signal (z-score),[33],0.895

# 2 entries from above in another layout:
binder	measurement	setting	value
B1	glycan array binding signal (z-score)	[27]	-0.559
same	glycan array binding signal (z-score)	[28]	-0.441
